# Source: patent US5266599A, “Use of (+)-1-[(3,4,5-trimethoxy)-benzyloxymethyl]-1-phenyl-N,N-dimethyl-n-propy lamine to increase gastric discharge in a subject” (priority 1989, dated 1993)
# Tested on: duodenum of the rat
# Format: cell-based
compound,measurement,value
CN1CC[C@]23c4c5ccc(O)c4O[C@H]2[C@@H](O)C=C[C@H]3[C@H]1C5 [Morphine],"IC50, inhibition of 50% of the amplitude of contractions",Inactive at 10^-4
